In PubChem BioAssay AID328 (DTP/NCI, 2004) one finds survivor count and T/C data, which are given here for 24 compounds.

The list shows only some results of the screen, not a fair sample: it is rich in T/C values a quarter to a half above the control, in often repeated tests (any T/C) and in doses without a T/C. Other doses and runs of a compound stand elsewhere. T/C: endpoint of the treated group in % of that of the vehicle group. Some entries give survivors of the animals treated and no T/C: the source files T/C as zero there, which appears to mark a toxic dose or a test without result, not a measured value. Some doses without a T/C left all or most animals alive at the check, yet need not have been tolerated: survival well below the control is almost never listed, so the zero probably covers shortened survival too. Counts of survivors are from the toxicity check (mostly the fifth day) where no day follows; animals may have died later. Schedule codes are those of the source, taken here to give the interval after Q, in days (D) or hours (H), and the number of doses after X. Some doses were run more than once; the results are listed from low to high. For survival time, this PubChem deposit counts one and a half times the control or more as active, and values a quarter to a half above the control carry no call in these data; other NCI protocols may use other cut-offs. Some T/C values carry the count of animals alive at the toxicity check (mostly the fifth day); without a count, all were alive then.

For this experiment, the system named is BDF1 mice, P388 leukemia ip, median survival T/C. The experiment in a line: NCI In Vivo Anticancer Drug Screen. Data for tumor model P388 Leukemia (intraperitoneal) in B6D2F1 (BDF1) mice. The conditions noted are these: T/C endpoint: median survival time, higher T/C = longer survival. An outline of the steps:
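In tumour-bearing mice, survival after compound treatment is set against the vehicle group and given as a quotient.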

[1] abbreviates: dose: 12.5 mg/kg/injection, schedule: Q01DX009 (ip), vehicle: saline.
[2] abbreviates: dose: 50.0 mg/kg/injection, schedule: Q01DX009 (ip), vehicle: saline.
Where [3] appears, read: dose: 100.0 mg/kg/injection, schedule: Q01DX009 (ip), vehicle: saline.
The mark [4] stands for this setting: dose: 200.0 mg/kg/injection, schedule: Q01DX009 (ip), vehicle: saline.
Setting [5] is: dose: 200.0 mg/kg/injection, schedule: Q01DX009 (ip), vehicle: saline with Tween-80.
The mark [6] stands for this setting: dose: 200.0 mg/kg/injection, schedule: Q01DX009 (ip), vehicle: Klucel (hydroxypropylcellulose) (HPC).
[7] abbreviates: dose: 400.0 mg/kg/injection, schedule: Q01DX009 (ip), vehicle: Klucel (hydroxypropylcellulose) (HPC).
Setting [8] is: dose: 400.0 mg/kg/injection, schedule: Q01DX009 (ip), vehicle: saline with Tween-80.
Where [9] appears, read: dose: 50.0 mg/kg/injection, schedule: Q01DX009 (ip), vehicle: saline with Tween-80.
Setting [10] is: dose: 100.0 mg/kg/injection, schedule: Q01DX009 (ip), vehicle: saline with Tween-80.
The mark [11] stands for this setting: dose: 400.0 mg/kg/injection, schedule: Q04DX003 (ip), vehicle: saline with Tween-80.

As for `CCN(CC)CCCCCCNc1cc(OC)c(OC)c2c(C)ccnc12`, the survivor count is on record as 6 of 6 under setting [1], 0 of 6 under setting [2], 0 of 6 under setting [3] and 0 of 6 under setting [4].

On to `OC(COc1cccc(C(F)(F)F)c1)CN1CCN(c2ccc(F)cc2)CC1` (stereo not drawn), for which the survivor count under setting [5] is 2 of 6.

Regarding `Cc1ccc2c(Br)cc(Br)c(O)c2n1`, the survivor count under setting [6] is 3 of 6 and the survivor count under setting [7] was 0 of 6.

For `COc1cc(C(=O)N(CCCl)N=O)cc(OC)c1OC`, the survivor count under setting [8] was 3 of 6.

As for `C/C(=N\NC(N)=O)c1ccc(Cl)cc1`, the survivor count runs as follows: under setting [6], 0 of 6; under setting [7], 0 of 6.

`COC1OC(COS(=O)(=O)c2ccc(C)cc2)C2OC(C)(C)OC12` (stereo not drawn): under setting [6], the survivor count is recorded as 6 of 6.

Turning to `c1cc(NC2CCCCC2)ccc1CN1CCOCC1`, the T/C is 126 % of control (dose: 100.0 mg/kg/injection, schedule: Q01DX009 (ip), vehicle: other) and 145 % of control (dose: 400.0 mg/kg/injection, schedule: Q01DX009 (ip), vehicle: other).

Regarding `CCCCOCN(COCCCC)c1ccccc1Cl`, the T/C was 129 % of control under setting [9]; 132 and 140 % of control under setting [5].

Regarding `CCN=C=NCCCN(C)C`, the T/C is, setting by setting: (dose: 53.0 mg/kg/injection, schedule: Q04DX003 (ip), vehicle: saline) 129 % of control; (dose: 80.0 mg/kg/injection, schedule: Q04DX003 (ip), vehicle: saline) 141 % of control [5 of 6 alive]. In addition, the survivor count is 4 of 6 (dose: 120.0 mg/kg/injection, schedule: Q01DX009 (ip), vehicle: saline) and 3 of 6 (dose: 120.0 mg/kg/injection, schedule: Q04DX003 (ip), vehicle: saline).

As to `O=NN(CCCl)C(=O)Nc1ccc(NC(=O)N(CCCl)N=O)cc1`, the T/C is 127 and 134 % of control (dose: 1.0 mg/kg/injection, schedule: Q04DX003 (ip), vehicle: Klucel (hydroxypropylcellulose) (HPC)); 134 % of control (dose: 67.0 mg/kg/injection, schedule: Q01DX009 (ip), vehicle: Klucel (hydroxypropylcellulose) (HPC)); 126, 140, 165, 180 % of control (dose: 100.0 mg/kg/injection, schedule: Q01DX009 (ip), vehicle: Klucel (hydroxypropylcellulose) (HPC)). Moreover, the survivor count under setting [7] is 5 of 6.

`Clc1nc(Cl)c(Nc2ccn[nH]2)nc1Cl`: the survivor count under setting [5] was 2 of 6.

Take `CC(C)C([NH-])=O.CC(C)C([NH-])=O.[Cl][Pt+2][Cl]`: the T/C runs as follows: under setting [1], 136 % of control; (dose: 50.0 mg/kg/injection, schedule: Q01DX009 (ip), vehicle: saline, evaluated on day 20) 125 % of control; (dose: 50.0 mg/kg/injection, schedule: Q01DX009 (ip), vehicle: saline, evaluated on day 30) 129 % of control. Also, the survivor count reads like this: under setting [3], 5 of 6; (dose: 200.0 mg/kg/injection, schedule: Q04DX003 (ip), vehicle: saline) 0 of 6.

Take `c1ccc(-c2cc(-c3ccccc3)[s+]s2)cc1`: the T/C under setting [9] was 126 % of control [5 of 6 alive]; the T/C under setting [10] was 126 % of control; the T/C (dose: 200.0 mg/kg/injection, schedule: Q04DX003 (ip), vehicle: saline with Tween-80) was 132 % of control. Also, the survivor count is, setting by setting: under setting [5], 2 of 6; (dose: 250.0 mg/kg/injection, schedule: Q04DX003 (ip), vehicle: saline with Tween-80) 2 of 6; under setting [11], 2 of 6.

`CCCN(/C=C/C=C/C=[N+](CCC)CCC)CCC`: the T/C runs as follows: (dose: 0.1 mg/kg/injection, schedule: Q01DX009 (ip), vehicle: saline) 135 % of control; (dose: 0.2 mg/kg/injection, schedule: Q01DX009 (ip), vehicle: saline) 132 and 143 % of control; (dose: 0.4 mg/kg/injection, schedule: Q01DX009 (ip), vehicle: saline) 145 % of control.

For the compound `Nc1cc(C(=O)Nc2ccc(C3=NCCN3)cc2)ccc1C(=O)Nc1ccc(C2=NCCN2)cc1`, the T/C runs as follows: (dose: 1.0 mg/kg/injection, schedule: Q01DX009 (ip), vehicle: saline with Tween-80) 125 % of control [5 of 6 alive]; (dose: 5.0 mg/kg/injection, schedule: Q01DX009 (ip), vehicle: saline with Tween-80) 142 % of control. Further, the survivor count is, setting by setting: under setting [10], 5 of 6; under setting [5], 5 of 6; under setting [8], 3 of 6; under setting [11], 5 of 6.

For `CC1(C)N=C(N)N=C(N)N1c1ccc(C(=O)CCl)cc1`, the survivor count was 3 of 6 under setting [2], 1 of 6 under setting [3] and 0 of 6 under setting [4].

Take `NCCNCC[OH2+].NCCNCC[OH2+].[Cu+2].[O-][Cl+3]([O-])([O-])[O-]`: the survivor count is 1 of 6 and 4 of 6 under setting [2]; 0 of 6 under setting [3]; 0 of 6 under setting [4].

Turning to `CC1=C[P+](c2ccccc2)(c2ccccc2)C=C(c2ccccc2)O1`, the survivor count (dose: 50.0 mg/kg/injection, schedule: Q01DX005 (ip), vehicle: saline with Tween-80) is on record as 0 of 5; the survivor count (dose: 100.0 mg/kg/injection, schedule: Q01DX005 (ip), vehicle: saline with Tween-80) is recorded as 0 of 5; the survivor count (dose: 200.0 mg/kg/injection, schedule: Q01DX005 (ip), vehicle: saline with Tween-80) is 0 of 5.

`CC(C)(CC(=O)O)c1ccccc1`: the T/C (dose: 100.0 mg/kg/injection, schedule: Q04DX003 (ip), vehicle: saline) was 128 % of control.

For the compound `NC(C(=O)O)C1=CCC=CC1` (stereo not drawn), the survivor count under setting [5] was 3 of 6.

In the case of `CCCCSC1=CC(=O)c2ccccc2C1=O`, the survivor count by setting is: (dose: 25.0 mg/kg/injection, schedule: Q01DX009 (ip), vehicle: Klucel (hydroxypropylcellulose) (HPC)) 3 of 6; (dose: 50.0 mg/kg/injection, schedule: Q01DX009 (ip), vehicle: Klucel (hydroxypropylcellulose) (HPC)) 0 of 6.

Turning to `O=[N+]([O-])c1cnc2ccnn2c1`, the survivor count under setting [6] is 6 of 6 and the survivor count under setting [7] is given as 4 of 6.

As for `CCC(CO)NC(=O)/C=C/c1ccccc1Cl` (stereo not drawn), under setting [8], the survivor count is reported as 3 of 6.

As to `CCCCCCCCCCCCCCCC[N+]1(CC)CCCC1`, the survivor count is recorded as 3 of 6 (dose: 0.78 mg/kg/injection, schedule: Q01DX009 (ip), vehicle: saline); 2 of 6 (dose: 1.56 mg/kg/injection, schedule: Q01DX009 (ip), vehicle: saline); 2 of 6 (dose: 3.12 mg/kg/injection, schedule: Q01DX009 (ip), vehicle: saline).
